Construct, isoform or probe ends are uncertain for at least one entry. Weaker means in comparison with the reference protein, sequence or condition of that experiment.
Tested on: SIRT6-ΔC (SIRT6-Δ298-355)
Experiment: EMSA
Settings: 50 nM DNA, binds, but larger shift not observed up to 7 uM protein, EMSA: 50 mM Tris pH 7.5, 20 mM NaCl, 2 mM MgCl2, 2 mM DTT, RT 15 min, 10 ul, 5% TBE gel, recombinant protein, protein details: tag cleaved with TEV, label: none (ethidium bromide stain)

CTACTGGTACGGCAGACAGGATGTATATATCTGACACGTGCCTGGAGACTAGGGAGTAATCCCCTTGGCGGTTAAAACGCGGGGGACAGCGCGTACGTGCGTTTAAGCGGTGCTAGAGCTGTCTACGACCAATTGAGCGGCCTCGGCACCGGGATTCTCCAGTATTCGAGGCCGTTC (double strand) [ds601 DNA (177 bp)]
binding result: binds more weakly

Reference: paper PMC12167490
